Drawing on doi:10.1101/2025.10.01.679907, this text covers binding for three substances.

Protein sequences, listed by entry. Tags and fused reporters are not part of them.
UniProt Q9NR09: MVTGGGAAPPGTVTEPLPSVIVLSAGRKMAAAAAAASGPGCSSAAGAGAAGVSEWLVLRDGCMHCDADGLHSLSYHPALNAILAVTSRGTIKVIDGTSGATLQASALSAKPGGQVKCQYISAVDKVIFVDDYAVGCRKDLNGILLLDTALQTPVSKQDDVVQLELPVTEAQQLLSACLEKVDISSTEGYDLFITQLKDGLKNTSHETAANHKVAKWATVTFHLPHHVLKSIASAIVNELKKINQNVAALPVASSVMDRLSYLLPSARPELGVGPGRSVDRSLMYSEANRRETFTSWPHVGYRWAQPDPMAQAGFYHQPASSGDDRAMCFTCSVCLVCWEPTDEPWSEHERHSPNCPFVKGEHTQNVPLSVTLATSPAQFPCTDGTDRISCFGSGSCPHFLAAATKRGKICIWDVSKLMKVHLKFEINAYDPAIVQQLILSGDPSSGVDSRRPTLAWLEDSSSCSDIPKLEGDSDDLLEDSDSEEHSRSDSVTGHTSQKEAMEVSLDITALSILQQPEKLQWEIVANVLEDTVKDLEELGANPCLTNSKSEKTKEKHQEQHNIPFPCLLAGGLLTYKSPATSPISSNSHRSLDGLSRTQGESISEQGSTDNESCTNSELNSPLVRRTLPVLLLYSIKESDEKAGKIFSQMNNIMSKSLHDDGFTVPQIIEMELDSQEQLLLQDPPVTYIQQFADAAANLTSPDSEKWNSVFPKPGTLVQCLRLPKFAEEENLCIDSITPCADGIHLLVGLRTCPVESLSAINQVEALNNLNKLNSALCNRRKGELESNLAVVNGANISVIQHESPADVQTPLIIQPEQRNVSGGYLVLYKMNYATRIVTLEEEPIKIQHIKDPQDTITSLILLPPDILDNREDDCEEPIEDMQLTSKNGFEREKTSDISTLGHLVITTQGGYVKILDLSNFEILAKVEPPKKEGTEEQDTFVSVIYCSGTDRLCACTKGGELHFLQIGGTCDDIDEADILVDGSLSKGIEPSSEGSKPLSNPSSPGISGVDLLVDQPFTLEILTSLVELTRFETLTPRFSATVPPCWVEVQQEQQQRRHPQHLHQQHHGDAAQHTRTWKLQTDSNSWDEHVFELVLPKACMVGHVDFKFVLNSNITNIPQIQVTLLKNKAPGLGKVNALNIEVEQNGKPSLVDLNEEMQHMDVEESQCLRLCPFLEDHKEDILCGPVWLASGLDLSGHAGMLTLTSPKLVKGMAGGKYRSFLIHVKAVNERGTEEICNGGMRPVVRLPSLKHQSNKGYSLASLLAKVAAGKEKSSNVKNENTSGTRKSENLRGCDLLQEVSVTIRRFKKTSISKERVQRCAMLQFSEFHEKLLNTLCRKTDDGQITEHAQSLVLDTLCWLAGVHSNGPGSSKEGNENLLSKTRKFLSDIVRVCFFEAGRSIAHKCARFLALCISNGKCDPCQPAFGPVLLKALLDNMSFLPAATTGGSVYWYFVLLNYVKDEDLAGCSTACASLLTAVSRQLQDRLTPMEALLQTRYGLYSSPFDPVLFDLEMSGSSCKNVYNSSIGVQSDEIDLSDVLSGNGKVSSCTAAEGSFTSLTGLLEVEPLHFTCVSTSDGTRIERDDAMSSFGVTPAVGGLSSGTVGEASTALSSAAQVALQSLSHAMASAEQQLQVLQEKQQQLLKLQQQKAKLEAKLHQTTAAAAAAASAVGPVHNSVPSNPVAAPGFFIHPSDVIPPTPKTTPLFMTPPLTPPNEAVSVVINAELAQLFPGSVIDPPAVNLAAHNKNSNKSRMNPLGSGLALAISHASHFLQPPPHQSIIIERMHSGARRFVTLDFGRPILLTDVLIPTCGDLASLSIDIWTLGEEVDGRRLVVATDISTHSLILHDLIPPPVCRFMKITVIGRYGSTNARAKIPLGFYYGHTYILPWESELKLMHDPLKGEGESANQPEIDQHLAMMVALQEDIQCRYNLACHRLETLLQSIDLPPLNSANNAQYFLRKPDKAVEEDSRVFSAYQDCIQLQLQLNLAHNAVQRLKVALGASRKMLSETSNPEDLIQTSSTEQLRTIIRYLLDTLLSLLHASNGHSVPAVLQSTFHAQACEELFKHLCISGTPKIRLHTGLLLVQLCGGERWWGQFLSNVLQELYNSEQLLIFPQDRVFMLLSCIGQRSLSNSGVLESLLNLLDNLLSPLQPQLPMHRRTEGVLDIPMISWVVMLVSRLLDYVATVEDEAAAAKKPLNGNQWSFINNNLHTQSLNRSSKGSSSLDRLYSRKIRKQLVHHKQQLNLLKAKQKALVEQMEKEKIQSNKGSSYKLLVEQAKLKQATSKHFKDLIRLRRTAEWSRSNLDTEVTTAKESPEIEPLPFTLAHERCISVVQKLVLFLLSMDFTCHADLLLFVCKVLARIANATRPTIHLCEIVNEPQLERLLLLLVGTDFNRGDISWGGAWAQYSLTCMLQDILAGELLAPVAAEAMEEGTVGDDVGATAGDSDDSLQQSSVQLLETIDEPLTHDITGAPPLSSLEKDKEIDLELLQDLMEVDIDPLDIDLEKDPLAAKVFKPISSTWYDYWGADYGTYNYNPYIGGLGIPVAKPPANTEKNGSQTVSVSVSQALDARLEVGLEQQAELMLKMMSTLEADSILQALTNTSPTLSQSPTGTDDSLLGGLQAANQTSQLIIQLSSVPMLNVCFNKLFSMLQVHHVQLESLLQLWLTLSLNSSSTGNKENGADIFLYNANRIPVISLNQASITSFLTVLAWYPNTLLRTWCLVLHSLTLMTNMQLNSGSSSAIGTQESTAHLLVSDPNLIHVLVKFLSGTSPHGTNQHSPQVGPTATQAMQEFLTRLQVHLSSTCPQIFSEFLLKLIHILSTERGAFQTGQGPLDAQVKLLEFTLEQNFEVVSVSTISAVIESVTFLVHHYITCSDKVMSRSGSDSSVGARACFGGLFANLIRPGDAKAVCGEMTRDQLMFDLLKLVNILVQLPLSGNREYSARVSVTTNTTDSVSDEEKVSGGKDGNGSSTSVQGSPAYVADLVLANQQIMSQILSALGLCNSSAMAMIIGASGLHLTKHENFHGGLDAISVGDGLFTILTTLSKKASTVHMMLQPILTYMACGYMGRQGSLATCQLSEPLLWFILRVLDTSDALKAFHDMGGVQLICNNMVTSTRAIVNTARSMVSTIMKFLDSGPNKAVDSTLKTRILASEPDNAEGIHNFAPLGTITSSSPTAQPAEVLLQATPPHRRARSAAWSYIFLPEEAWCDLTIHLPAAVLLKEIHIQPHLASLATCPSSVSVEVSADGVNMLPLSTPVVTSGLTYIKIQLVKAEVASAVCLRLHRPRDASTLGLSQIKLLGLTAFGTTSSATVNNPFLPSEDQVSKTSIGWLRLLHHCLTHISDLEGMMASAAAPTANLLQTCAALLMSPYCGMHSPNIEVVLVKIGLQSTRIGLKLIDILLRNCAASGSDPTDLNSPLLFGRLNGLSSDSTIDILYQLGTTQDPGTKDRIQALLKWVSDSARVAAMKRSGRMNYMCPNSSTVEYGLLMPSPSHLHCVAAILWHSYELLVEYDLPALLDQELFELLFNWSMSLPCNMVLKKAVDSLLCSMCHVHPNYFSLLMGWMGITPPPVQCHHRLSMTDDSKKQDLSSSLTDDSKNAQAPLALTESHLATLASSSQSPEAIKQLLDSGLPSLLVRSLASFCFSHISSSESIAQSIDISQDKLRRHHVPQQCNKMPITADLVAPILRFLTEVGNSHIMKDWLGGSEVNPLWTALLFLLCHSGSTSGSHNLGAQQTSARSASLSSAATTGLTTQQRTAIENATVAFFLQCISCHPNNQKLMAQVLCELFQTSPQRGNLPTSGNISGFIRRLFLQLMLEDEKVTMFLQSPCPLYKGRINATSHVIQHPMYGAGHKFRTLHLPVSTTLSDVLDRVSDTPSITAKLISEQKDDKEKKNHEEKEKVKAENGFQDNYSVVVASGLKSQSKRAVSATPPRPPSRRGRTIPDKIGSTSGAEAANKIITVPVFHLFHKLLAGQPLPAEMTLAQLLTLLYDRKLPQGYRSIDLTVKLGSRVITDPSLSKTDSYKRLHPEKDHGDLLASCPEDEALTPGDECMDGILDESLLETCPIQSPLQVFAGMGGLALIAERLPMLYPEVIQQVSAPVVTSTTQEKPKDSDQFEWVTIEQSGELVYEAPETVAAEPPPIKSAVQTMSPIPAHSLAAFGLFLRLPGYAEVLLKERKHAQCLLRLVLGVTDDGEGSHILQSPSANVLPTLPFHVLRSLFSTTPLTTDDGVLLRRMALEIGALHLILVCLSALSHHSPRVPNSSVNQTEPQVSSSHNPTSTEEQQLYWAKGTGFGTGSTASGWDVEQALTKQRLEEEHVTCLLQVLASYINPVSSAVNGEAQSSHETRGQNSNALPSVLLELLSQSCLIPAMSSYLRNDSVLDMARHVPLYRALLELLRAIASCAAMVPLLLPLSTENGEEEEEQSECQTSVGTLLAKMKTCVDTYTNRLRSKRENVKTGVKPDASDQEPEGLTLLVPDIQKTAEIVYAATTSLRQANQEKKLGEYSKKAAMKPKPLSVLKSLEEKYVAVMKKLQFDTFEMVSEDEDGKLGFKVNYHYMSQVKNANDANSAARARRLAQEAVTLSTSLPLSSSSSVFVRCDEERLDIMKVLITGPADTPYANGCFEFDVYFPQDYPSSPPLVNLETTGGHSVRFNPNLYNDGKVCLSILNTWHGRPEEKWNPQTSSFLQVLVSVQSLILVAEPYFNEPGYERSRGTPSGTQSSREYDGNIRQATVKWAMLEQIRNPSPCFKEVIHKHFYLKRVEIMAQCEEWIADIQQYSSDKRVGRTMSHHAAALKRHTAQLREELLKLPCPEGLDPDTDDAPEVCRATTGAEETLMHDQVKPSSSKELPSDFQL

Holding throughout (test): co-IP
Experiment [1] deals with T1, Myc-A20 (Myc-A20-pLVX, overexpressed in DU145 cells) (UniProt P21580).
T1 sequence: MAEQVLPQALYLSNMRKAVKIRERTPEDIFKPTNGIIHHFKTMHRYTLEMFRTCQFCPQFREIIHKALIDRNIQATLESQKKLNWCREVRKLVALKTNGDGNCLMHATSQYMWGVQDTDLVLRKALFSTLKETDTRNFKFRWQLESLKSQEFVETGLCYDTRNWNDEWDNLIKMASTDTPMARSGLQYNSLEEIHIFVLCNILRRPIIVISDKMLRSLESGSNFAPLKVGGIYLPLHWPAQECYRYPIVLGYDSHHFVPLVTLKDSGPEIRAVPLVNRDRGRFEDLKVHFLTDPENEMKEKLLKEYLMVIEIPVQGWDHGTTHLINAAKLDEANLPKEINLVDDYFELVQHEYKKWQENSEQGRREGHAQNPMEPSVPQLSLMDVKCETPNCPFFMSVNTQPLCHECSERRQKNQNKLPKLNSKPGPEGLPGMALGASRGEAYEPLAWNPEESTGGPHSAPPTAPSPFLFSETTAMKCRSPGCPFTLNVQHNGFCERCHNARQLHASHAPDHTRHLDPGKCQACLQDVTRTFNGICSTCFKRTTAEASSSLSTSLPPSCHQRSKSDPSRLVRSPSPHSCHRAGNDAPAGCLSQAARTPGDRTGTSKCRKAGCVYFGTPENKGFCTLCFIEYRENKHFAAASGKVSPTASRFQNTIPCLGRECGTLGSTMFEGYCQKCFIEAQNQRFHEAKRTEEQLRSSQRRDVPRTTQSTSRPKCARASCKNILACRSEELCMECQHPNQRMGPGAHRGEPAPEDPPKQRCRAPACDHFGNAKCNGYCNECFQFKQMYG

In experiment [2] the target is T2, Myc-A20 (full-length A20) (UniProt P21580).
T2 sequence: T1 sequence

In experiment [3] the target is T3, A20, endogenous in PC3 cells (human (endogenous in PC3)) (UniProt P21580).
T3 sequence: T1 sequence

No constants are given. Whether binding was seen depends on the method and setting. Binding seen in cells or lysates may run through a third protein. Some results given as binding are weak or reduced against the parent protein; the word gives no strength. For part of these data: Where a sequence is shown, tags or fusion partners need not be part of it.

Consider “BIRC6, endogenous in DU145 cells (from UniProt Q9NR09 1-4857)”, for which the binding result in experiment [1] is listed as “binds”.

Turning to “Flag-BIRC6 (full-length BIRC6) (from UniProt Q9NR09 1-4857)”, the binding entry in experiment [2] is listed as “binds”.

As to “BIRC6, endogenous in PC3 cells (from UniProt Q9NR09 1-4857)”, in experiment [3], the binding result is reported as “binds”.
